Data as given in PubChem BioAssay AID662 (National Center for Advancing Translational Sciences (NCATS), 2007).
Where “and” joins values, the source holds several entries; their conditions need not be identical. Equal values may be shown once. Some of the results follow. Further columns of the screen follow, without active or inactive calls. Most of these compounds were active or inconclusive in the main read-out, so they are no random draw. Potencies come from curve fits of mixed quality, noted in brackets.

Test: Cell signaling CRE-BLA (Fsk stim)
Details: CHO CRE-bla reporter (cAMP response element driving beta-lactamase), forskolin EC10, beta-lactamase ratio; measured here: 460 nm blue channel
Method in brief: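 Modulation of forskolin signalling: compounds in titration series added with EC10 NKH 477 to CHO cells carrying a CRE-driven beta-lactamase reporter, 3 h, 37C. CCF4 FRET ratio (460/530 nm, ex 405 nm) gives %activity and AC50.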

Row | Compound | AC50
1 | O=c1cc(-c2ccc(O)cc2)oc2cc(O)cc(O)c12 | 12.6 µM [falling, single point] and 12.6 µM [falling, partial curve] and 25.1 µM [falling, single point]
2 | CCCCC(CC)CNS(=O)(=O)c1ccc2c(c1)CCN2C(=O)CCC(=O)O (stereo unspecified) | 0.00398 µM [falling, full curve, poor fit]
3 | O=c1c2c3nc4ccccc4nc3n(-c3ccc4c(c3)OCCO4)c2ncn1C1CCCC1 | 15.8 µM [rising, single point]
4 | Cc1cnc(CNc2ncncc2-c2ccc3c(c2)OCO3)cn1 | 5.01 µM [rising, single point]
5 | COc1ccc(CNc2ncnc3ccc(-c4ccc(N(C)C)cc4)cc23)c(OC)c1 | 10 µM [rising, partial curve]
6 | Clc1ccccc1C1=Nn2c(nnc2-c2ccncc2)SC1 | 6.31 µM [falling, partial curve]
7 | O=C(c1cc2nc(-c3ccccc3)cc(-c3ccccc3)n2n1)N1CCN(C(=O)c2ccco2)CC1 | 1.58 µM [rising, full curve]
8 | CC1=C(C(=O)OCc2ccccc2)C(c2ccc(C(C)(C)C)cc2)NC(=O)N1CCCCCC(=O)O (stereo unspecified) | 7.94 µM [rising, partial curve]
9 | COc1cc(Br)cc(/C=N/c2ncn[nH]2)c1O | 0.00398 µM [falling, full curve, poor fit]
10 | COc1ccccc1NC(=O)CN1CCN(CC(=O)Nc2ccc(Cl)c(C(F)(F)F)c2)CC1 | 0.0251 µM [rising, full curve, poor fit]
11 | COc1cc(NC(=O)CN2CCN(S(=O)(=O)c3ccc(C(C)C)cc3)CC2)cc(OC)c1 | 3.98 µM [rising, full curve]
12 | O=C(CCCc1nc(-c2ccccc2)no1)Nc1cccnc1 | 0.2 µM [rising, single point]
13 | COc1ccc(CCNc2oc(Cc3ccccc3)nc2C#N)cc1OC | 25.1 µM [rising, single point]
14 | O=C(Cn1nnc(-c2ccccc2)n1)Nc1ccccc1N1CCOCC1 | 15.8 µM [rising, single point]
15 | c1ccc2c(c1)oc1c(Nc3ccc(CN4CCOCC4)cc3)ncnc12 | 25.1 µM [falling, single point]
16 | Cc1cc(C)n(C(=O)c2cccc(S(=O)(=O)N3CCOCC3)c2)n1 | 0.00631 µM [falling, full curve, poor fit]
17 | CCCc1[nH]nc2c1C(c1ccncc1)C(C#N)=C(N)O2 (stereo unspecified) | 0.0398 µM [falling, full curve]
18 | COc1ccc(-c2ccc(SCC(=O)N3CCOCC3)nn2)cc1OC | 12.6 µM [rising, partial curve]
19 | Cc1cc2oc(C(=O)N(Cc3ccco3)C3CCS(=O)(=O)C3)cc(=O)c2cc1Cl (stereo unspecified) | 12.6 µM [rising, single point]
20 | Cc1onc(-c2ccccc2)c1C(=O)NC(CC(=O)O)c1ccc(OC(C)C)cc1 (stereo unspecified) | 20 µM [falling, partial curve, poor fit]
21 | COc1ccc2cc3cc(C(=O)Nc4ccc5c(c4)OCCO5)oc3nc2c1 | 0.0631 µM [rising, full curve, poor fit]

Row | Compound | AC50
22 | Cc1ccc(S(=O)(=O)N(Cc2nccn2C)C(C)C)cc1 | 3.16 µM [falling, full curve, poor fit]
23 | CCOC(=O)C1CCN(C(=O)c2cn(C)c(=O)c3cc(OC)c(OC)cc23)CC1 | 10 µM [rising, partial curve]
24 | CCOc1ccccc1NC(=O)Cn1nnc(C(=O)Nc2ccccc2Cl)c1N | 1.58 µM [rising, full curve]
25 | CCCCn1c(CN2CCN(C(=O)OCC)CC2)nc2c1c(=O)[nH]c(=O)n2C | 0.0794 µM [rising, full curve, poor fit]
26 | CCC(C)(C)n1nnnc1C(c1cc2cc(OC)c(OC)cc2[nH]c1=O)N1CCc2ccccc21 (stereo unspecified) | 12.6 µM [rising, single point]
27 | CCN(CC)CCCC(C)n1c(-c2ccccc2)nc2c(NCCO)nc(C)nc21 (stereo unspecified) | 2.51 µM [rising, partial curve]
28 | CCSc1nnc(NC(=O)CSc2nc(CC)nc3c2c(=O)n(C)c(=O)n3C)s1 | 2.51 µM [rising, full curve]
29 | COc1cc(Cn2c(=O)oc3ccc(C)cc32)ccc1OC(C)C | 7.94 µM [rising, partial curve]
30 | N#CCCn1c(=O)c(-c2ccc(F)cc2)nc2cnc(N3CCNCC3)nc21 | 7.94 µM [rising, partial curve]
31 | Cc1ccc(-n2c(=O)c(C#N)cc3c(=O)n4ccccc4nc32)cc1 | 3.98 µM [rising, partial curve]
32 | Cc1nc2cnc(N(C)C)nc2n(C2CC2)c1=O | 10 µM [rising, partial curve]
33 | Cc1ccc(-n2c(C)cc(C(=O)CSc3nnnn3C)c2C)cc1 | 25.1 µM [rising, single point]
34 | Cc1ccc(C)c(Cn2c(=O)n(CCC(=O)NCc3ccco3)c(=O)c3sccc32)c1 | 12.6 µM [rising, single point]
35 | CCc1ccccc1N1CC(C(=O)O)CC1=O (stereo unspecified) | 2.51 µM [rising, full curve]
36 | CCOc1ccccc1N1CSC2=C(C#N)C(c3c(OC)ccc4ccccc34)CC(=O)N2C1 (stereo unspecified) | 10 µM [falling, single point]
37 | COc1ccc(-c2nnc3sc(-c4cccs4)nn23)cc1OC | 5.01 µM [rising, partial curve]
38 | O=C(O)c1cccc(NC(=O)C23CC4CC(C2)CC(n2cnc(Cl)n2)(C4)C3)c1 | 0.251 µM [falling, full curve]
39 | Cc1cccn2c(=O)c3cc(C(=O)NCc4ccccn4)n(C)c3nc12 | 2.51 µM [rising, full curve]
40 | O=C(Nc1ccccc1NC(=O)c1c(F)c(F)c(F)c(F)c1F)c1c(F)c(F)c(F)c(F)c1F | 12.6 µM [falling, single point]
41 | O=C(Cc1ccccc1)N1CCCC1c1ccccc1 (stereo unspecified) | 2.51 µM [falling, partial curve]

A portion from further up:
Row | Compound | AC50
22 | Cc1ccc(S(=O)(=O)N(Cc2nccn2C)C(C)C)cc1 | 3.16 µM [falling, full curve, poor fit]
23 | CCOC(=O)C1CCN(C(=O)c2cn(C)c(=O)c3cc(OC)c(OC)cc23)CC1 | 10 µM [rising, partial curve]
24 | CCOc1ccccc1NC(=O)Cn1nnc(C(=O)Nc2ccccc2Cl)c1N | 1.58 µM [rising, full curve]
